# Source: the supplement of paper PMC6411743
# Sequences of proteins named here, by UniProt entry; tags and fusion partners are left off. A change or cut given only in a name is not applied to a line headed by its entry.
# UniProt P52948: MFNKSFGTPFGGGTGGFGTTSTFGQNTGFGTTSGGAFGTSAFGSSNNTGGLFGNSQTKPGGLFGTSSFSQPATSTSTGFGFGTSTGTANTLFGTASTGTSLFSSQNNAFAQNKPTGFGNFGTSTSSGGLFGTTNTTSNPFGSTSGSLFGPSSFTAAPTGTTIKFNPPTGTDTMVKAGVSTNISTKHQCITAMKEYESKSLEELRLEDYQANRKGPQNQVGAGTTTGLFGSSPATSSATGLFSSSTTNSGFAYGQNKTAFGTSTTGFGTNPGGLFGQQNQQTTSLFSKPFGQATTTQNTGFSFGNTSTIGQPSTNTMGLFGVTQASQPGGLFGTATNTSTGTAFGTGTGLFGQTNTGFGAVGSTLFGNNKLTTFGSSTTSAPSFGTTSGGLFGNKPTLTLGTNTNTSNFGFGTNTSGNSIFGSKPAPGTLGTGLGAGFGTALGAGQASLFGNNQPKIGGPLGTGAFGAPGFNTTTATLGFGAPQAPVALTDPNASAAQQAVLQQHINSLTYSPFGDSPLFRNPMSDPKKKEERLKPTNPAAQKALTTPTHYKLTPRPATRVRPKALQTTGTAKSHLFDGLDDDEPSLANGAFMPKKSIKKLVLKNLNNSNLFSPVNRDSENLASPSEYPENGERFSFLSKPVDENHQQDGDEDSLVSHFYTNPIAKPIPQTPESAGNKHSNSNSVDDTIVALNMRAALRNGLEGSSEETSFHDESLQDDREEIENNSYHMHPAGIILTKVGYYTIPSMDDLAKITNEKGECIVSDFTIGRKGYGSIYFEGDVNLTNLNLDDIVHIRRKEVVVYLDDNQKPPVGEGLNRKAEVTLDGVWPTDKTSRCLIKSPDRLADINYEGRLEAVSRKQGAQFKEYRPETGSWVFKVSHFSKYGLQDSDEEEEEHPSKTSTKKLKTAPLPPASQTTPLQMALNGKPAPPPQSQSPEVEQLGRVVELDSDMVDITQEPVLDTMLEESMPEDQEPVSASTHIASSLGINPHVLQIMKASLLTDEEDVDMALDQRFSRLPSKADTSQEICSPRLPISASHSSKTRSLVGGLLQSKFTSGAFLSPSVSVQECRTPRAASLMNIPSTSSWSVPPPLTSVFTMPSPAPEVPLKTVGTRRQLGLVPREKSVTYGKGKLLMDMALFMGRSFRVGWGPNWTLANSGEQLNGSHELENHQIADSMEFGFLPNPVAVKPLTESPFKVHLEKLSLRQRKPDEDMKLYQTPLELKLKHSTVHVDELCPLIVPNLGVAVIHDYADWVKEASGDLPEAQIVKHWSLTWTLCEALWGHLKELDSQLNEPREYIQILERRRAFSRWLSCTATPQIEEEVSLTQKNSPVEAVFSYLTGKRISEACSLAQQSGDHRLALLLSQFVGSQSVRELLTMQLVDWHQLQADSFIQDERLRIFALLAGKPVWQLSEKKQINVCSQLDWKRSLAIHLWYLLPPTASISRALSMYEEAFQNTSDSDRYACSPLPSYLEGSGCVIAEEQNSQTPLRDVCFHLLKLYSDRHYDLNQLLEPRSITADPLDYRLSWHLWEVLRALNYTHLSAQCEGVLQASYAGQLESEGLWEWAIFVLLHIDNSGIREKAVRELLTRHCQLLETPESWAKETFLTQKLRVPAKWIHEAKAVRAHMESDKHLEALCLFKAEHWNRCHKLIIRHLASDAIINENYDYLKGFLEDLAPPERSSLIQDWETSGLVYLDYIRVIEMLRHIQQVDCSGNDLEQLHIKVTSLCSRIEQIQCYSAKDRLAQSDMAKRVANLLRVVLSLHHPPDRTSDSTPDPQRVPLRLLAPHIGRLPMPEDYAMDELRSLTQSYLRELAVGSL
# UniProt P51665: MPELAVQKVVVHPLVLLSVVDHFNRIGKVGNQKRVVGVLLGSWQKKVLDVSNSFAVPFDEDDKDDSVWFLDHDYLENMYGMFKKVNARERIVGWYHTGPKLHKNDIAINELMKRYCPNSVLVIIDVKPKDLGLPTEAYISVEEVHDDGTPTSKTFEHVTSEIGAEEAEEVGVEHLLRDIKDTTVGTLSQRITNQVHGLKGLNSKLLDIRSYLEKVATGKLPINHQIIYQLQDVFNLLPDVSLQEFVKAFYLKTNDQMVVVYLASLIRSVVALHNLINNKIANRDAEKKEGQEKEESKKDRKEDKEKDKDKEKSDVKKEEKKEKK
# UniProt P54578: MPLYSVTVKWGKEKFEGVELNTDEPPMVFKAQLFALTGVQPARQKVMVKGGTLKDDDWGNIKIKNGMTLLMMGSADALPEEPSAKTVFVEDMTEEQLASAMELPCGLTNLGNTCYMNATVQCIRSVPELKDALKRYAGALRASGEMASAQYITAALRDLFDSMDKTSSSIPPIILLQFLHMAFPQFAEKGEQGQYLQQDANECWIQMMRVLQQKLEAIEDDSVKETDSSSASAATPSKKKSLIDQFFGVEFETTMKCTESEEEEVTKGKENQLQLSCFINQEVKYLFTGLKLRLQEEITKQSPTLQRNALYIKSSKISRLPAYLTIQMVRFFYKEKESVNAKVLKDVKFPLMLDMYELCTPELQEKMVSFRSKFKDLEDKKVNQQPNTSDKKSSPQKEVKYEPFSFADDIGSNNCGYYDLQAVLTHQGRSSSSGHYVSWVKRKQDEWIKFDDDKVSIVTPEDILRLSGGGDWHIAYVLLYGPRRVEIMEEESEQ
# UniProt P51531, whole entry: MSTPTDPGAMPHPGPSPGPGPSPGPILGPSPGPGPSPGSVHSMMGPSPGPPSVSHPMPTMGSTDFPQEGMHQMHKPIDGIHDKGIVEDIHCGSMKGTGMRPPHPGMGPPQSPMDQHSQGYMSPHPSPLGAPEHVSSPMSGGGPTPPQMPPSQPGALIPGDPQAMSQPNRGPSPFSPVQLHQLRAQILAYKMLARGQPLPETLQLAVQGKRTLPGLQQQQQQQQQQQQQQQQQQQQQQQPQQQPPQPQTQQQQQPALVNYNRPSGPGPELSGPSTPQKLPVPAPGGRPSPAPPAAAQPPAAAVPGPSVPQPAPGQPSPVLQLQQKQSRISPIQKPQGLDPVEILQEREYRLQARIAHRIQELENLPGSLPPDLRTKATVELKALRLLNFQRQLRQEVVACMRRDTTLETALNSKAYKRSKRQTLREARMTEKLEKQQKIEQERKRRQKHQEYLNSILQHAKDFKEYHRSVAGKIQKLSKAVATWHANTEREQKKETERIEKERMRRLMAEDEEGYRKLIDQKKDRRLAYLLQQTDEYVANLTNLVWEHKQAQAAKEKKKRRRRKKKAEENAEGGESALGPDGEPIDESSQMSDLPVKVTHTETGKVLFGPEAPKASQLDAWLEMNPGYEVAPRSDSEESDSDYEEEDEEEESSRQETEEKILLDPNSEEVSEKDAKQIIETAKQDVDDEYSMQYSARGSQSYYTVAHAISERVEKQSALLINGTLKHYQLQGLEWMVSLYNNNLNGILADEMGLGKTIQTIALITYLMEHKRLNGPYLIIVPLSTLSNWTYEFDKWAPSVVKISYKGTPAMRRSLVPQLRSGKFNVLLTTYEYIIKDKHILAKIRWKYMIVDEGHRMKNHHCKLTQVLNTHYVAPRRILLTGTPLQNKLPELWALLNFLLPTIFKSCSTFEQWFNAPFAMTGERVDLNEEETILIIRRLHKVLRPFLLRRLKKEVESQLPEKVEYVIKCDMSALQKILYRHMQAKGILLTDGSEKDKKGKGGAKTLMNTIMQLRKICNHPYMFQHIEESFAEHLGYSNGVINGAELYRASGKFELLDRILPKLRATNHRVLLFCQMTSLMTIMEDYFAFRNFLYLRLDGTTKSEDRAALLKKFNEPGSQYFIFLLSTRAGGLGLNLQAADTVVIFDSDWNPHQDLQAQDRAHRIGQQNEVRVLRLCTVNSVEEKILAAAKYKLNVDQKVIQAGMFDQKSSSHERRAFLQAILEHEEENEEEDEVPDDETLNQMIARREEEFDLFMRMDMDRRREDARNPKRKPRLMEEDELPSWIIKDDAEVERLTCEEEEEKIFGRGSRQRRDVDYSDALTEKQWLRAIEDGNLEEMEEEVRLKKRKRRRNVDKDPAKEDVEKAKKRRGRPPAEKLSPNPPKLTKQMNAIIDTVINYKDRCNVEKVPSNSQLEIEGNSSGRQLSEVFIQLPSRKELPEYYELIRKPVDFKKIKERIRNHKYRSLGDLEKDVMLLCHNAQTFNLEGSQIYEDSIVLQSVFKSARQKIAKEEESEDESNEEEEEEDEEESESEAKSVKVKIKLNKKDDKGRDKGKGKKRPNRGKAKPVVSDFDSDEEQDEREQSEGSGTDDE
# UniProt P48735: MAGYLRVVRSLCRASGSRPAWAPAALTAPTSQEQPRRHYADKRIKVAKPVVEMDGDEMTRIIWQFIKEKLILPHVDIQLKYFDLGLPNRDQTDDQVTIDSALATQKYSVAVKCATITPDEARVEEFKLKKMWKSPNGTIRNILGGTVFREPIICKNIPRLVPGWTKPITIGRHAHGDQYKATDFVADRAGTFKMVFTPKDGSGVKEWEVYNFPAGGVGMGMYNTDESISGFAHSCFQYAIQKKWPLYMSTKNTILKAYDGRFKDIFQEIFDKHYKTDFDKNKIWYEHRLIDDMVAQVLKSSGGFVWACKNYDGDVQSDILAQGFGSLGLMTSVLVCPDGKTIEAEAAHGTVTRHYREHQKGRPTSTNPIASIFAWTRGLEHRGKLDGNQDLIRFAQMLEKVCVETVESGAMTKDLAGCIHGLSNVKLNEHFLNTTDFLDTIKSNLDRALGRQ
# UniProt P53384: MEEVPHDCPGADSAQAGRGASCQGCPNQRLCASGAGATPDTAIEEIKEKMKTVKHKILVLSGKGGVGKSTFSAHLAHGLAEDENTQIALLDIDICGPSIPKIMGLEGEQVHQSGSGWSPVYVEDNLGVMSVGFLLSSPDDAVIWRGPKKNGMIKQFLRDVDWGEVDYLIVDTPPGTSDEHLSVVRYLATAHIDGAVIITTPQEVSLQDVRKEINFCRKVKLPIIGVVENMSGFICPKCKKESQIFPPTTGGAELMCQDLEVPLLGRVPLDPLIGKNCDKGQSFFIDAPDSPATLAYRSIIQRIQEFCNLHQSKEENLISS
# UniProt P51648: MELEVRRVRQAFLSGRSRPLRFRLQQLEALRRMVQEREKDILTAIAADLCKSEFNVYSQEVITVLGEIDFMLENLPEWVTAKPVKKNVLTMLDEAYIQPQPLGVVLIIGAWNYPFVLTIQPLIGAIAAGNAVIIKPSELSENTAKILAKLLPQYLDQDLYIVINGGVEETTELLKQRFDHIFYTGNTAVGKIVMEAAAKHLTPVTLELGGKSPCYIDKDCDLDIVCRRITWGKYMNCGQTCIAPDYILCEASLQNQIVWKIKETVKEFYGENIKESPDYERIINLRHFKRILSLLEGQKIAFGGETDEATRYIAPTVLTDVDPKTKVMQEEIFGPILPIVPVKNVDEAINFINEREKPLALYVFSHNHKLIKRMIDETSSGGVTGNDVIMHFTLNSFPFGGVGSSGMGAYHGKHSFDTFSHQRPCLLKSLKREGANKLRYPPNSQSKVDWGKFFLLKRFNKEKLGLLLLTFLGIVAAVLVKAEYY
# UniProt P51159: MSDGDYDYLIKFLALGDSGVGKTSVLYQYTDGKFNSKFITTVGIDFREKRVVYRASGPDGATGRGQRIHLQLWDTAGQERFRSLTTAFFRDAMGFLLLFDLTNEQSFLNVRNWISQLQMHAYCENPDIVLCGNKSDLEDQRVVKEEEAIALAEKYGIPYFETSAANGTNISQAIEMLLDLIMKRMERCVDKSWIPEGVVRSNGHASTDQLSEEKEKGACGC
# UniProt P50452: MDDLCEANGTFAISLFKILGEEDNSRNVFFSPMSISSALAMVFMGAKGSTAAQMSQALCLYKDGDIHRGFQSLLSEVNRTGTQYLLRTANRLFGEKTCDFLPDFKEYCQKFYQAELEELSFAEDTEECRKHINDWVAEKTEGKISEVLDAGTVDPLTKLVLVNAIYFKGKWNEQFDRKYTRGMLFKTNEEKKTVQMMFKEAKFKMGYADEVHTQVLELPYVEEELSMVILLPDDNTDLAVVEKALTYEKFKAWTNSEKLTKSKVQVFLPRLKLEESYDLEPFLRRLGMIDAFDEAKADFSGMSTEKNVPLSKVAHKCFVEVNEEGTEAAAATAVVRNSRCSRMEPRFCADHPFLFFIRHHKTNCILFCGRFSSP
# UniProt P53634: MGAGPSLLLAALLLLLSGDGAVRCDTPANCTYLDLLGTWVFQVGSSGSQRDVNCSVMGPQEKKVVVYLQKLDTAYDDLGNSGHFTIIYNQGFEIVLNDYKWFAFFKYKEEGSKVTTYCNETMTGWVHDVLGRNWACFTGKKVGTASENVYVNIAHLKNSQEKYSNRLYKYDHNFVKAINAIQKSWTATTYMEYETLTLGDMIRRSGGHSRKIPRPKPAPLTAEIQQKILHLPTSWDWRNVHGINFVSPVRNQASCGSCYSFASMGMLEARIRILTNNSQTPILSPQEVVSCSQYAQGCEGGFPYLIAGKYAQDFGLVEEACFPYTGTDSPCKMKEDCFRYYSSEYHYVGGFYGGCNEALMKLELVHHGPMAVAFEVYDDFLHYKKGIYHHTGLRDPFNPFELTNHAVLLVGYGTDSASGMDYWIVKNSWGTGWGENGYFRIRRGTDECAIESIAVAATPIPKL
# ± gives the standard deviation of the averaged measurements. Only a part is listed here, and it is no random draw.
# Compound: Nc1ncnc2c1ncn2[C@@H]1O[C@H](COP(=O)(O)OP(=O)(O)NP(=O)(O)O)[C@@H](O)[C@H]1O [adenylyl imidodiphosphate]
# Experiment: NP40-soluble protein abundance relative to vehicle (solubility fold change) (ratio); higher = more soluble protein in presence of AMP-PNP
# Procedure, shortened: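 Crude Jurkat lysate, prepared by Dounce homogenisation, was exposed to eight concentrations from 0.1 to 10 mM for 10 min at room temperature and then 3 min at 37 °C. Solubilisation used 0.8% NP40 with benzonase for 60 min at 4 °C, followed by ultracentrifugation and TMT labelling of the supernatant for LC-MS/MS. After vsn normalisation of intensities, each value is the fold change against the detergent-processed vehicle within each replicate, across three independent experiments.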
Target,NP40-soluble protein abundance (concentration: 1mM),NP40-soluble protein abundance (concentration: 2mM),NP40-soluble protein abundance (concentration: 4mM),NP40-soluble protein abundance (concentration: 6mM),NP40-soluble protein abundance (concentration: 8mM),NP40-soluble protein abundance (concentration: 10mM)
PBX2 (UniProt P40425),0.994 ± 0.024,1.01 ± 0.053,0.982 ± 0.02,0.994 ± 0.048,1.01 ± 0.052,1.01 ± 0.054
UniProt P52948 and related entries,1.07 ± 0.047,1.1 ± 0.015,1.13 ± 0.018,1.22 ± 0.056,1.28 ± 0.02,1.417 ± 0.011
UniProt P51798 and related entries,1 ± 0.019,1.03 ± 0.019,0.991 ± 0.037,0.968 ± 0.037,0.964 ± 0.039,0.965 ± 0.013
UniProt P51809 and related entries,0.982 ± 0.023,0.941 ± 0.02,1.04 ± 0.091,1.11 ± 0.07,1.1 ± 0.054,1.12 ± 0.1
HSPA13 (UniProt P48723),1.05 ± 0.051,1.05 ± 0.044,1.06 ± 0.067,1.04 ± 0.011,1.05 ± 0.045,1.03 ± 0.043
UniProt P51532 and related entries,1.02 ± 0.043,1.08 ± 0.052,1.04 ± 0.037,1.09 ± 0.068,1.06 ± 0.061,1.14 ± 0.13
UniProt P45985,0.974 ± 0.01,1.008 ± 0.0097,0.991 ± 0.015,0.994 ± 0.04,0.963 ± 0.02,1.02 ± 0.037
UniProt P46020-2|A6NMN0 and related entries,0.957 ± 0.016,0.931 ± 0.046,0.938 ± 0.046,0.913 ± 0.081,0.904 ± 0.065,0.904 ± 0.069
PRIM2 (UniProt P49643),0.996 ± 0.022,0.954 ± 0.018,1 ± 0.013,1.02 ± 0.044,1.02 ± 0.027,1.02 ± 0.029
PTPN9 (UniProt P43378),0.982 ± 0.043,0.944 ± 0.031,0.977 ± 0.05,0.978 ± 0.026,0.968 ± 0.02,0.974 ± 0.017
FXR2 (UniProt P51116),1.07 ± 0.022,1.1 ± 0.023,1.2 ± 0.025,1.24 ± 0.076,1.33 ± 0.051,1.39 ± 0.12
KPNA1 (UniProt P52294),1.02 ± 0.012,0.97 ± 0.026,1.035 ± 0.007,0.993 ± 0.031,1.02 ± 0.035,0.989 ± 0.03
GNPDA1 (UniProt P46926),0.926 ± 0.077,0.869 ± 0.0095,0.968 ± 0.12,1.14 ± 0.16,1.15 ± 0.14,1.11 ± 0.11
PSMB10 (UniProt P40306),0.937 ± 0.034,0.894 ± 0.036,0.915 ± 0.046,0.949 ± 0.043,0.933 ± 0.058,0.899 ± 0.046
CASP2 (UniProt P42575),1.01 ± 0.053,0.976 ± 0.052,0.989 ± 0.028,0.992 ± 0.05,1.01 ± 0.048,0.984 ± 0.042
UniProt P50053 and related entries,0.994 ± 0.024,1 ± 0.025,0.9864 ± 0.0097,0.968 ± 0.019,1 ± 0.032,0.995 ± 0.036
HADHA (UniProt P40939),0.949 ± 0.017,0.873 ± 0.069,0.913 ± 0.043,0.95 ± 0.022,0.962 ± 0.029,0.922 ± 0.056
UniProt P52630 and related entries,0.988 ± 0.036,0.984 ± 0.031,1.04 ± 0.04,1.03 ± 0.026,1.043 ± 0.0069,1.03 ± 0.029
STAT6 (UniProt P42226),0.988 ± 0.019,0.992 ± 0.019,0.99 ± 0.011,0.983 ± 0.026,0.989 ± 0.025,0.998 ± 0.012
PLK1 (UniProt P53350),1.046 ± 0.0027,1.04 ± 0.066,1.1 ± 0.037,1.05 ± 0.03,1.1 ± 0.045,1.08 ± 0.073

Target,NP40-soluble protein abundance (concentration: 1mM),NP40-soluble protein abundance (concentration: 2mM),NP40-soluble protein abundance (concentration: 4mM),NP40-soluble protein abundance (concentration: 6mM),NP40-soluble protein abundance (concentration: 8mM),NP40-soluble protein abundance (concentration: 10mM)
UniProt P40925 and related entries,0.964 ± 0.02,0.9471 ± 0.0058,0.914 ± 0.027,0.982 ± 0.029,0.961 ± 0.029,0.972 ± 0.027
TXLNA (UniProt P40222),1.04 ± 0.059,1.17 ± 0.13,1.08 ± 0.14,1.21 ± 0.15,1.35 ± 0.046,1.2 ± 0.2
KIF11 (UniProt P52732),1.01 ± 0.016,1 ± 0.017,0.966 ± 0.012,0.936 ± 0.035,0.9 ± 0.011,0.904 ± 0.0075
IQGAP1 (UniProt P46940),0.97 ± 0.026,0.934 ± 0.035,0.974 ± 0.034,0.997 ± 0.026,0.998 ± 0.015,0.997 ± 0.025
ADK (UniProt P55263),0.9872 ± 0.0072,0.9401 ± 0.0044,0.964 ± 0.032,1.01 ± 0.056,1.04 ± 0.033,1.01 ± 0.024
CCT6A (UniProt P40227),0.869 ± 0.18,0.873 ± 0.11,0.826 ± 0.19,0.922 ± 0.09,0.836 ± 0.18,0.912 ± 0.16
PSMD7 (UniProt P51665),0.925 ± 0.017,0.882 ± 0.053,0.92 ± 0.083,0.926 ± 0.066,0.926 ± 0.086,0.951 ± 0.14
METAP1 (UniProt P53582),1.05 ± 0.046,1.06 ± 0.081,1.16 ± 0.071,1.31 ± 0.046,1.37 ± 0.061,1.38 ± 0.074
USP14 (UniProt P54578),1 ± 0.011,0.965 ± 0.027,0.972 ± 0.03,1.02 ± 0.022,1.02 ± 0.012,1.02 ± 0.043
SMARCA2 (UniProt P51531),1.01 ± 0.02,1.04 ± 0.065,1.04 ± 0.035,1.05 ± 0.034,1.07 ± 0.033,1.1 ± 0.072
RBM34 (UniProt P42696),1.07 ± 0.069,1.12 ± 0.044,1.15 ± 0.082,1.23 ± 0.12,1.23 ± 0.12,1.36 ± 0.16
IDH2 (UniProt P48735),0.963 ± 0.031,0.956 ± 0.025,0.947 ± 0.029,0.976 ± 0.025,0.956 ± 0.046,0.942 ± 0.034
SMS (UniProt P52788),1.01 ± 0.025,0.99 ± 0.055,0.957 ± 0.034,0.963 ± 0.033,0.949 ± 0.025,0.944 ± 0.045
MVD (UniProt P53602),0.971 ± 0.021,0.9638 ± 0.0049,1.01 ± 0.025,1.02 ± 0.056,1 ± 0.042,1 ± 0.051
RASSF2 (UniProt P50749),1.02 ± 0.036,0.996 ± 0.028,0.999 ± 0.043,1.02 ± 0.055,1.05 ± 0.058,1.04 ± 0.071
UniProt P51795-2,0.957 ± 0.027,0.954 ± 0.021,0.9701 ± 0.0056,0.93485 ± 0.00084,0.9674 ± 0.0051,0.938 ± 0.0099
MNX1 (UniProt P50219),0.988 ± 0.02,1.01 ± 0.03,1.02 ± 0.023,0.994 ± 0.014,0.9972 ± 0.0056,1.015 ± 0.0047
UniProt P51572 and related entries,1.027 ± 0.0056,1.09 ± 0.099,1.02 ± 0.028,1.03 ± 0.03,1.03 ± 0.049,1.01 ± 0.033
ETV6 (UniProt P41212),0.975 ± 0.03,0.9849 ± 0.0036,0.957 ± 0.035,1 ± 0.026,0.9823 ± 0.0063,0.947 ± 0.047
GCLC (UniProt P48506),0.993 ± 0.027,0.928 ± 0.043,0.976 ± 0.033,0.941 ± 0.014,0.963 ± 0.029,0.922 ± 0.02

Target,NP40-soluble protein abundance (concentration: 1mM),NP40-soluble protein abundance (concentration: 2mM),NP40-soluble protein abundance (concentration: 4mM),NP40-soluble protein abundance (concentration: 6mM),NP40-soluble protein abundance (concentration: 8mM),NP40-soluble protein abundance (concentration: 10mM)
FNTB (UniProt P49356),1.02 ± 0.014,0.9976 ± 0.0089,1.02 ± 0.054,1.01 ± 0.029,1.01 ± 0.011,1.04 ± 0.013
RECQL (UniProt P46063),0.972 ± 0.018,0.958 ± 0.0099,0.98 ± 0.012,1.01 ± 0.067,1.03 ± 0.045,0.977 ± 0.023
UniProt P53384 and related entries,0.979 ± 0.025,0.969 ± 0.057,1 ± 0.031,0.982 ± 0.022,0.97 ± 0.014,0.96 ± 0.063
UniProt P51648 and related entries,0.985 ± 0.04,0.889 ± 0.089,0.975 ± 0.022,0.983 ± 0.026,1.01 ± 0.027,0.962 ± 0.033
RAB27A (UniProt P51159),0.977 ± 0.066,0.98 ± 0.027,0.98 ± 0.046,1.04 ± 0.078,1.02 ± 0.045,1.07 ± 0.034
EIF5 (UniProt P55010),1.01 ± 0.02,1.06 ± 0.067,0.999 ± 0.053,1.04 ± 0.026,1.01 ± 0.046,1.06 ± 0.048
CASP3 (UniProt P42574),1.01 ± 0.026,0.977 ± 0.026,1.01 ± 0.019,0.957 ± 0.012,0.997 ± 0.019,0.985 ± 0.012
RPL21 (UniProt P46778),1.03 ± 0.079,1.04 ± 0.053,1 ± 0.14,0.894 ± 0.12,0.807 ± 0.049,0.912 ± 0.18
UniProt P51149,0.941 ± 0.045,0.8959 ± 0.0061,0.922 ± 0.047,0.995 ± 0.07,0.997 ± 0.051,0.981 ± 0.047
RFC3 (UniProt P40938),0.997 ± 0.034,0.968 ± 0.033,1.06 ± 0.097,1.19 ± 0.1,1.23 ± 0.077,1.24 ± 0.17
UniProt P53365 and related entries,1.01 ± 0.049,1.03 ± 0.092,0.984 ± 0.065,0.977 ± 0.045,0.981 ± 0.041,0.949 ± 0.071
MTIF2 (UniProt P46199),1.03 ± 0.016,1.01 ± 0.018,1.04 ± 0.014,1.02 ± 0.022,1 ± 0.028,1.04 ± 0.018
CCT4 (UniProt P50991),0.966 ± 0.072,0.951 ± 0.047,0.931 ± 0.084,0.907 ± 0.12,0.877 ± 0.08,0.905 ± 0.13
CDC34 (UniProt P49427),1.04 ± 0.059,1.07 ± 0.037,1.06 ± 0.057,1.04 ± 0.039,1 ± 0.043,1.06 ± 0.017
UniProt P49674,0.996 ± 0.018,1.01 ± 0.025,1 ± 0.035,1 ± 0.032,1.03 ± 0.03,1.01 ± 0.042
GCLM (UniProt P48507),1.03 ± 0.017,1.018 ± 0.0095,1 ± 0.022,0.999 ± 0.025,1.01 ± 0.017,0.984 ± 0.014
SERPINB8 (UniProt P50452),1.02 ± 0.013,0.963 ± 0.063,1 ± 0.037,0.987 ± 0.0084,1 ± 0.022,0.982 ± 0.033
CTSC (UniProt P53634),0.997 ± 0.019,1.09 ± 0.11,1.03 ± 0.034,1.04 ± 0.051,1.06 ± 0.067,1.06 ± 0.047
UniProt P42568 and related entries,1 ± 0.019,1.01 ± 0.013,1.03 ± 0.039,1.01 ± 0.017,1.02 ± 0.011,1.061 ± 0.0051
HLCS (UniProt P50747),0.999 ± 0.023,0.951 ± 0.022,0.957 ± 0.027,0.97 ± 0.015,0.969 ± 0.045,0.954 ± 0.015

# Just NP40-soluble protein abundance (concentration: 10mM) and NP40-soluble protein abundance (concentration: 6mM) (two entries from above):
Target	NP40-soluble protein abundance (concentration: 10mM)	NP40-soluble protein abundance (concentration: 6mM)
EIF5 (UniProt P55010)	1.06 ± 0.048	1.04 ± 0.026
UniProt P42568 and related entries	1.061 ± 0.0051	1.01 ± 0.017
